Here are results for one substance from paper PMC5142333.

Chains of the proteins cited; added tags and fusions are not shown.
UniProt P46934: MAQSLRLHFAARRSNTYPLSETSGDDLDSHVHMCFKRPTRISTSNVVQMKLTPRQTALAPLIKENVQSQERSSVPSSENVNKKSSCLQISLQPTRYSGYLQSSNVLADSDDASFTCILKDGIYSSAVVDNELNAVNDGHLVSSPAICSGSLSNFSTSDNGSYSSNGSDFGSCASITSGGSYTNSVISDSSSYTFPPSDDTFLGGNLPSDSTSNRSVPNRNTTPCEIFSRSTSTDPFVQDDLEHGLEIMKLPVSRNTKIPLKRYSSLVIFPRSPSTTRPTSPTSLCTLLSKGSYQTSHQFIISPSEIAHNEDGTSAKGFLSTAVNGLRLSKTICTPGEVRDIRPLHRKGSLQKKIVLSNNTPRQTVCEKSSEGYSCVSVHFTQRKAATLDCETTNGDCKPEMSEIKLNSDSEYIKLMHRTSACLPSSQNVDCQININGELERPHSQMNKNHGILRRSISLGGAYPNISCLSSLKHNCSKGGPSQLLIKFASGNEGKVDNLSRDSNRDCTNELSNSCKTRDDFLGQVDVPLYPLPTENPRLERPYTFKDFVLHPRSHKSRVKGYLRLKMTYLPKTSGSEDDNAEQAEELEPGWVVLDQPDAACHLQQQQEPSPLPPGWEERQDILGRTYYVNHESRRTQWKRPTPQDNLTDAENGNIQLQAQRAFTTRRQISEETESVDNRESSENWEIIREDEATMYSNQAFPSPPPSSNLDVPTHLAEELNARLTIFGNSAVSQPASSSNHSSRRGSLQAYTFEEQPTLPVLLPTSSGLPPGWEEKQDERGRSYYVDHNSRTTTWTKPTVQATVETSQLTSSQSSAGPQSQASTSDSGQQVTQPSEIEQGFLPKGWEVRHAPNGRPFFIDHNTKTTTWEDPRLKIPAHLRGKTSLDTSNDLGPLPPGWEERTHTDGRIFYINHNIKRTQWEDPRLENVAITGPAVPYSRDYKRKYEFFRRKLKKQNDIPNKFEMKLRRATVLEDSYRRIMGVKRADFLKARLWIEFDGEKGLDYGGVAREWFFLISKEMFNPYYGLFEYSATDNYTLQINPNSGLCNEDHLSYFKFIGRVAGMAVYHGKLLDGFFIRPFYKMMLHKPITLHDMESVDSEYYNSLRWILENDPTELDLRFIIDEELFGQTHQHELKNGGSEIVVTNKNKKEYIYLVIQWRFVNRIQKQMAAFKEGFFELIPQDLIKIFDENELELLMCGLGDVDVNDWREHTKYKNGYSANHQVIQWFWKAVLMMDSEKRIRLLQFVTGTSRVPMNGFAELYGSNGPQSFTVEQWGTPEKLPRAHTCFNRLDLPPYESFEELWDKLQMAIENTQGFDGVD

These are yes or no findings as the source states them, for the method shown. Binding seen in cells or lysates may run through a third protein. Some binding calls cover weakened binding; strength is not graded here. Where a sequence is shown, tags or fusion partners need not be part of it.

This test has as its target T1, GST-LITAF 1–77 (human) (UniProt Q99732).
T1 sequence: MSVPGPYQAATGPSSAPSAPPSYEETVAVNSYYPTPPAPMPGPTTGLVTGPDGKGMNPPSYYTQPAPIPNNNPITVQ
The experiment in a line: pull-down; GST-LITAF 1–77 constructs (0.2 mg/mL) added to precleared RPE cell lysate (20 mM HEPES pH 7.4, 150 mM NaCl, 1 mM EDTA, 0.5% Triton X-100), 2 h at 4 °C, captured on glutathione sepharose 4B; western blot for NEDD4; only the target purified. A general note: In western blotting, separated proteins are transferred to a membrane and probed.

Turning to “NEDD4 (endogenous, RPE cell lysate) (from UniProt P46934 1-1319)”, the binding result is “binds”.
